53 molecules from PubChem BioAssay AID1487 (National Center for Advancing Translational Sciences (NCATS), 2009) can be followed below.

A short description of the assay: qHTS Assay for Modulators of Lamin A Splicing. The note with it: HeLa LMNA splicing GFP/RFP minigene ratio, 48 h. Put shortly: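 S3 HeLa stable clones carrying a lamin A-EGFP splicing minigene plus DsRed2 were seeded at 600 cells/well in Opti-MEM with 2% FBS, pin-dosed and incubated 48 h at 37°C. Acumen cytometry (488 nm) gave the GFP/RFP total-intensity ratio.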
In general terms: Quantitative high-throughput screening tests each substance at several concentrations.

Where [1] appears, read: measured here: GFP splicing reporter channel.
Setting [2] is: measured here: RFP viability control channel.

SMILES strings stand for the structures. Where “and” joins values, the source holds several entries; their conditions need not be identical. Identical values can stand only once. The list shows a part of the results. These are further read-outs of the screen, such as a control signal, another cell line or another target. No call is given for them. Compounds called inactive in the main read-out are mostly missing here. Potencies come from curve fits of mixed quality, noted in brackets.

One may read the AC50 as the midpoint of the concentration-response curve, whichever way the signal moves. `CCN(CC)S(=O)(=O)c1ccc(C(=O)OCC(=O)NCCN2C(=O)CSC2=O)cc1`: the AC50 is 0.0126 µM [falling, full curve, poor fit] under setting [1] and 0.01 µM [falling, full curve, poor fit] under setting [2].

Regarding `COC(=O)c1ccccc1NC(=O)c1cc(C2CC2)on1`, the AC50 under setting [2] was 14.1 µM [rising, partial curve]. On the same count and under the same terms, the result for `CCSc1nnc(NC(=O)CSc2nc(C)cc(C)n2)s1` reads 31.6 µM [rising, single point]. On to `COc1ccc(NC(=O)N2CCCCC2c2cccnc2)cc1` (stereo not drawn), for which the AC50 reads like this: under setting [1], 2 µM [rising, partial curve]; under setting [2], 1.78 µM [rising, partial curve]. On to `CC(CN1c2ccccc2Sc2ccccc21)N(C)C` (stereo not drawn), for which the AC50 is 0.0282 µM [falling, partial curve, poor fit] under setting [1]; 56.2 nM [falling, partial curve, poor fit] and 5.62 µM [falling, single point] under setting [2].

Take `O=C1C2CCCN2C(=O)N1CCN1CCN(CCO)CC1` (stereo not drawn): the AC50 under setting [2] is 10 µM [falling, partial curve, poor fit]. Consider `Cc1nn(CC(=O)NCC2CCCO2)c(C)c1[N+](=O)[O-]` (stereo not drawn), for which the AC50 under setting [1] was 0.0562 µM [falling, full curve, poor fit]. In the case of `Cc1cccc(Cn2cccc2CNS(=O)(=O)c2ccc(Br)cc2)c1`, the AC50 runs as follows: under setting [1], 35.5 µM [falling, single point]; under setting [2], 35.5 µM [falling, single point]. On to `COc1ccc(NC(=O)c2cccs2)cc1O`, for which, under setting [2], the AC50 was 11.2 µM [rising, single point].

As for `CCOC(=O)C1=C(C)NC(C)=C(C(=O)OCC)C1C(=O)OCC(=O)N(C)C1CCS(=O)(=O)C1` (stereo not drawn), the AC50 was 0.631 µM [rising, partial curve, poor fit] under setting [1] and 0.708 µM [rising, partial curve, poor fit] under setting [2]. As for `CC1(C)CC(=O)C2=C(C1)NC(SCC(=O)Nc1ccccc1)=C(C#N)C2c1ccco1` (stereo not drawn), the half-maximal activity concentration (AC50) under setting [2] was 11.2 µM [rising, single point]. `NS(=O)(=O)c1ccc(CCNC(=O)CN2CCN(c3ccccc3F)CC2)cc1`: the AC50 under setting [1] is 0.1 µM [falling, full curve, poor fit]. On the same count and under the same terms, the result for `Cc1ccc2nc(SCc3nc4ccccc4c(=O)[nH]3)[nH]c2c1` reads 0.0251 µM [falling, full curve, poor fit].

For `Cc1onc(-c2c(F)cccc2Cl)c1C(=O)OCn1nnc2ccccc2c1=O`, the AC50 under setting [2] was 35.5 µM [rising, single point]. Same read-out and setting: under `O=C(COC(=O)c1ccncc1)c1ccc(Br)cc1` stands 0.00316 µM [falling, full curve, poor fit]. Take `COc1cccc(C(=O)N2CCC(O)(c3cccnc3)CC2)c1`: the AC50 runs as follows: under setting [1], 7.08 µM [rising, full curve, poor fit]; under setting [2], 0.1 µM [rising, full curve, poor fit].

As for `O=c1c(-c2ccccc2)nc2cnc(N3CCOCC3)nc2n1Cc1ccc(F)cc1`, the AC50 runs as follows: under setting [1], 0.00398 µM [falling, full curve, poor fit]; under setting [2], 0.00355 µM [falling, full curve, poor fit].

Regarding `CC1(C)[C@@H](OC(=O)CCC(=O)O)CC[C@@]2(C)[C@H]1CC[C@@]1(C)[C@H]2C(=O)C=C2[C@H]3C[C@](C)(C(=O)O)CC[C@]3(C)CC[C@@]21C`, the AC50 was 3.16 µM [falling, single point] under setting [1] and 3.16 µM [falling, single point] under setting [2]. As for `CCOC(=O)C(C)Sc1ccc2nnc(CCNS(=O)(=O)c3ccccc3)n2n1` (stereo not drawn), the AC50 under setting [2] is 0.02 µM [falling, full curve, poor fit]. Take `Fc1ccc(CSc2nc3ccccc3[nH]2)c2ccccc12`: under setting [2], the AC50 is 14.1 µM [rising, single point]. Still for that read-out and setting: the result for `O=c1c2ccccc2nnn1CSc1nnc(C2COc3ccccc3O2)n1-c1ccccc1` (stereo not drawn) reads 7.08 µM [rising, partial curve]. Turning to `O[C@@H](c1cc(C(F)(F)F)nc2c(C(F)(F)F)cccc12)[C@H]1CCCCN1`, the AC50 runs as follows: under setting [1], 35.5 µM [rising, single point]; under setting [2], 35.5 µM [rising, single point]. Consider `Cc1cccc(C(=O)N2CCc3cc(-c4nc(NC(=O)Cn5nnc6ccccc6c5=O)sc4C)ccc32)c1`, for which the AC50 under setting [2] is 8.91 µM [rising, partial curve]. Same read-out and setting: the result for `COCCCNC(=S)N1CCN(c2ccc([N+](=O)[O-])cc2)CC1` reads 2.51 µM [rising, partial curve]. Same read-out and setting: under `CC1CCc2sc(C(=O)Nc3nnc(SCc4ccc(F)cc4)s3)cc2C1` (stereo not drawn) stands 5.62 µM [rising, single point]. As for `Cc1ccc(NNC(=O)C(O)(c2cccc(C(F)(F)F)c2)c2cccc(C(F)(F)F)c2)cc1`, the AC50 under setting [1] is 11.2 µM [falling, partial curve]. On to `O=C(O)C1C2CCC(O2)C1C(=O)NCCC1=CCCCC1` (stereo not drawn), for which the AC50 under setting [1] is 12.6 µM [rising, partial curve] and the AC50 under setting [2] is 14.1 µM [rising, single point]. `NS(=O)(=O)c1cc2c(cc1C(F)(F)F)NC(Cc1ccccc1)NS2(=O)=O` (stereo not drawn): the AC50 under setting [2] is 0.501 µM [falling, full curve, poor fit]. For the molecule `CCN(CC)CCCN(Cc1cc2cc3c(cc2[nH]c1=O)OCO3)C(=S)NCc1ccco1`, under setting [1], the AC50 was 0.0562 µM [rising, full curve, poor fit].

Regarding `CCOC(=O)Cn1c2c(c(=N)c3ccccc31)CCC2`, the AC50 under setting [1] was 11.2 µM [rising, partial curve, poor fit] and the AC50 under setting [2] is 10 µM [rising, partial curve, poor fit].

Take `Cc1ccc(OCCn2c(=S)[nH]c3c(N)ncnc32)cc1`: under setting [1], the AC50 is 5.62 µM [rising, single point].

As to `Nc1ccccc1Nc1cc(-c2ccccc2)[nH]n1`, the AC50 under setting [2] was 6.31 µM [rising, single point]. In the case of `COCCNC(=O)C(c1ccc(O)cc1)N(C(=O)CCC(=O)Nc1nccs1)c1cccc(C)c1` (stereo not drawn), the AC50 by setting is: under setting [1], 3.98 µM [rising, single point]; under setting [2], 35.5 µM [falling, single point].

`CC(=O)Nc1ccc2c(COC(=O)CC3Sc4ccccc4NC3=O)cc(=O)oc2c1` (stereo not drawn): the AC50 under setting [1] is 0.00562 µM [falling, full curve, poor fit].

As to `CCC(C)C(=O)OC1CC(O)C=C2C=CC(C)C(CCC(O)CC(O)CC(=O)O)C21` (stereo not drawn), the half-maximal activity concentration (AC50) under setting [1] is 0.01 µM [falling, full curve, poor fit]. With `COc1ccccc1CNS(=O)(=O)c1cnc(N)nc1`, the AC50 under setting [1] was 0.0316 µM [falling, full curve] and the AC50 under setting [2] was 0.0501 µM [falling, full curve, poor fit]. Turning to `CC(C)[C@H](NS(=O)(=O)c1ccc2c(c1)OCCO2)C(=O)OCC(=O)Nc1cc(Cl)ccc1Cl`, the AC50 under setting [2] was 35.5 µM [rising, single point]. On to `C#CCNc1nc(C(C)C)nc2c1nnn2Cc1ccccc1F`, for which the AC50 reads like this: under setting [1], 5.62 µM [falling, single point]; under setting [2], 3.55 µM [falling, single point].

Consider `O=C(COc1ccc(Cl)cc1Cl)N(c1ccccn1)C1CCCCC1`, for which the AC50 under setting [2] was 35.5 µM [rising, single point]. Regarding `O=S(=O)(Cc1cc(N2CCOCC2)nc(-c2ccccn2)n1)c1ccccc1`, under setting [2], the AC50 was 31.6 µM [rising, single point]. For the molecule `Cc1nc2ccn(Cc3ccco3)c(=O)c2cc1C(=O)NCc1ccccc1`, the AC50 is, setting by setting: under setting [1], 0.501 µM [rising, full curve, poor fit]; under setting [2], 0.708 µM [rising, full curve]. As for `CCOC(=O)C1=C(C)N2C(=C(C#N)[C@@H]1c1ccc(C(=O)OC)cc1)SC[C@@]2(O)C(C)(C)C`, the AC50 under setting [2] is 35.5 µM [rising, single point]. `O=C(CSc1ncnc2c1cnn2CCc1ccccc1)Nc1cccc(C(F)(F)F)c1`: the AC50 is 35.5 µM [rising, single point] under setting [1] and 31.6 µM [rising, single point] under setting [2].

Consider `CCc1ccc(NC(=O)COC(=O)C2(c3ccc(Cl)cc3)CCCC2)cc1`, for which the AC50 under setting [2] is 17.8 µM [rising, single point]. Consider `NS(=O)(=O)c1ccc(NC(=S)N2CCN(c3cccc(Cl)c3)CC2)cc1`, for which the concentration at half-maximal activity (AC50) reads like this: under setting [1], 15.8 µM [rising, single point]; under setting [2], 35.5 µM [rising, single point].

Take `COc1cc(CNC(=O)c2cccc(COc3ccc(Cl)cc3)c2)cc(OC)c1`: under setting [2], the AC50 is 22.4 µM [rising, single point].

`COCCn1c(=O)c(-c2ccccc2)nc2cnc(Oc3ccc(OC)cc3)nc21`: the AC50 under setting [1] is 14.1 µM [falling, partial curve] and the AC50 under setting [2] was 17.8 µM [falling, partial curve, poor fit]. For the molecule `C=CCn1c(SCC(=O)Nc2ncc(Cc3ccc(Br)cc3)s2)nnc1-c1ccncc1`, the AC50 was 31.6 µM [falling, single point] under setting [1] and 35.5 µM [falling, single point] under setting [2]. `CCOC(=O)Nc1ccc(NS(=O)(=O)c2ccc(C)cc2)cc1`: the AC50 under setting [2] was 0.501 µM [rising, full curve, poor fit]. Turning to `Cn1nnc(C(O)CN2CCOCC2)n1` (stereo not drawn), the AC50 under setting [1] is 1.78 µM [rising, partial curve, poor fit]. As for `O=c1oc2ccccc2cc1-c1csc(NN=C2CCCC2)n1`, the AC50 under setting [2] was 22.4 µM [rising, single point].

Regarding `Cc1ccc(NC(=O)c2sccc2C)cc1S(=O)(=O)N(C)C`, the AC50 under setting [2] was 5.01 µM [rising, partial curve, poor fit]. Turning to `CC(=O)Nc1ccc(S(=O)(=O)NCC2CCC(C(=O)NCCN(CC(C)C)CC(C)C)CC2)cc1` (stereo not drawn), the AC50 is 0.0398 µM [rising, full curve] under setting [1] and 0.0316 µM [rising, full curve, poor fit] under setting [2].
